# Taken from: PubChem BioAssay AID652259 (Drosophila RNAi Screening Center, 2013)
# Screen: 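Knock-downs that push a Wingless-driven reporter up or down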 (primary screen)
# System: Drosophila clone 8 imaginal disc epithelial cells
# Reagents: long dsRNA against Drosophila genes
# Challenge: pathway stimulated by co-transfected Wingless expression plasmid
# Read-out: 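Dual luciferase reads per well after Wingless plasmid stimulation: reporter firefly light and Renilla control light; activity is firefly divided by Renilla, a ratio not deposited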
# Scale: firefly reporter light: higher = more Wg reporter light, before normalisation; Renilla control light: higher = more transfected or surviving cells
# Active means: 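Strong candidates differ from their plate mean by at least two out of four per-plate statistical tests; weak candidates meet just one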
# Meaning of the calls: active = candidate regulator (raises or lowers reporter); inactive = not a candidate
# The screen tested about 22,000 reagents; shown is an unselected part of those that have a named target and a result. Over the whole deposit, 233 (1.1%) are marked active. 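Light values are raw, unnormalised plate reads; the ratio scores behind the reporter calls were not deposited.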 Names joined by + are all predicted targets of the reagent. Not given: the amount of reagent, the time to read-out, the dose of the treatment.
predicted target,amplicon,"reporter change call, replicate 1","firefly reporter light, replicate 1","firefly reporter light, replicate 2","Renilla control light, replicate 1","Renilla control light, replicate 2",activity call
CG4168,DRSC01446,,29132,,11739,,inactive
CG4168,DRSC01447,,14497,,7129,,inactive
CG4168,DRSC01933,,6936,,1952,,inactive
CG4168,DRSC21319,,4.18e5,5.60e5,2.22e5,2.06e5,inactive
CG4168,DRSC22789,,6.98e5,7.59e5,2.41e5,1.77e5,inactive
CG31251,DRSC16247,,12851,,1424,,inactive
CG33116,DRSC02045,,7762,,3488,,inactive
dar1,DRSC08049,,4613,,1772,,inactive
dar1,DRSC08233,,7930,,3169,,inactive
ATPsynCF6L,DRSC08232,,1507,10149,1468,4529,inactive
CG7739,DRSC10910,,4641,,2258,,inactive
CG13046,DRSC09927,,5980,,2278,,inactive
Tmem131,DRSC07154,,14464,,3344,,inactive
CG5280,DRSC10498,,2251,10118,1735,4136,inactive
CG5280,DRSC22835,,1.06e6,6.44e5,3.94e5,3.83e5,inactive
CG13747,DRSC06418,,2305,8608,897,3099,inactive
Or59a,DRSC04631,,2193,6630,661,3211,inactive
CG13177,DRSC06303,,10619,,2612,,inactive
jbug,DRSC03952,,16896,,8188,,inactive
jbug,DRSC04114,,7584,,2603,,inactive
jbug,DRSC04167,,3345,8135,797,3945,inactive
jbug,DRSC04388,,2475,7642,922,2615,inactive
CG10559,DRSC14255,,14250,,16501,,inactive
CG17036,DRSC02564,,2889,7453,1571,3736,inactive
nAChRbeta3,DRSC00325,,11322,,2393,,inactive
CG9095,DRSC20150,,15010,,6818,,inactive
ana2,DRSC05952,,8752,,2720,,inactive
NK7.1,DRSC16755,,6601,,1653,,inactive
CG10462,DRSC02058,,6018,,1341,,inactive
CG14621,DRSC20635,,9239,,7661,,inactive
Hakai,DRSC02031,,10635,,1798,,inactive
CG11373,DRSC12170,,10941,,3410,,inactive
Sec22 + CG13358,DRSC18538,,3156,9323,617,1457,inactive
CG14207,DRSC19562,,3285,9171,1402,2630,inactive
CG14207,DRSC19563,,19494,,12042,,inactive
Cap-H2,DRSC14908,,5164,,2280,,inactive
CG43136,DRSC17417,,4087,,1612,,inactive
Rpi,DRSC04583,,4088,8295,487,2233,inactive
Sod2,DRSC07554,,17702,,4251,,inactive
sha,DRSC06331,,6080,,2516,,inactive
CG12713,DRSC09900,,4196,,1627,,inactive
Alh,DRSC12447,,3223,,404,,inactive
Alh,DRSC12487,Wg reporter activity raised,30736,,3109,,inactive
Alh,DRSC12488,,24221,,3360,,inactive
ERR,DRSC10840,,4824,,1645,,inactive
Es2,DRSC18663,,2480,9059,849,1703,inactive
CG6083,DRSC10580,,4566,,2012,,inactive
CG1273,DRSC08291,,4759,,2384,,inactive
CG15293,DRSC01919,,2322,6636,1200,2797,inactive

Part of the list above, reformatted.
predicted target	amplicon	reporter change call, replicate 1	firefly reporter light, replicate 1	firefly reporter light, replicate 2	Renilla control light, replicate 1	Renilla control light, replicate 2	activity call
CG4168	DRSC01447		14497		7129		inactive
CG4168	DRSC01933		6936		1952		inactive
CG4168	DRSC21319		4.18e5	5.60e5	2.22e5	2.06e5	inactive
CG4168	DRSC22789		6.98e5	7.59e5	2.41e5	1.77e5	inactive
CG31251	DRSC16247		12851		1424		inactive
CG33116	DRSC02045		7762		3488		inactive
dar1	DRSC08049		4613		1772		inactive
